Source: article PMC12886529

By UniProt entry, the sequences of proteins in these tests, tags left out.
UniProt P08670: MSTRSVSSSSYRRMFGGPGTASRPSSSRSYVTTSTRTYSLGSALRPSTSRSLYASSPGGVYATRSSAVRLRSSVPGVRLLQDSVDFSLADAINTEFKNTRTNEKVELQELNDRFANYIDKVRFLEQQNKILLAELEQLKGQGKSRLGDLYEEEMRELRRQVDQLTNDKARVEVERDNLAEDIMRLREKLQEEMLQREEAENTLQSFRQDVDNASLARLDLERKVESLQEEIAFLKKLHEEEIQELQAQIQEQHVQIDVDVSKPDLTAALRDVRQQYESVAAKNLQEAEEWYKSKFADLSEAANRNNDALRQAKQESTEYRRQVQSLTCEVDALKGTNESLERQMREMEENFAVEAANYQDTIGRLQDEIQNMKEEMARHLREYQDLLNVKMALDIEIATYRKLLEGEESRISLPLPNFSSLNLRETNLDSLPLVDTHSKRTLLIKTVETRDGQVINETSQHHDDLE

Target: T1, CLCA4-Flag (chloride channel accessory 4) (UniProt Q14CN2)
T1 sequence: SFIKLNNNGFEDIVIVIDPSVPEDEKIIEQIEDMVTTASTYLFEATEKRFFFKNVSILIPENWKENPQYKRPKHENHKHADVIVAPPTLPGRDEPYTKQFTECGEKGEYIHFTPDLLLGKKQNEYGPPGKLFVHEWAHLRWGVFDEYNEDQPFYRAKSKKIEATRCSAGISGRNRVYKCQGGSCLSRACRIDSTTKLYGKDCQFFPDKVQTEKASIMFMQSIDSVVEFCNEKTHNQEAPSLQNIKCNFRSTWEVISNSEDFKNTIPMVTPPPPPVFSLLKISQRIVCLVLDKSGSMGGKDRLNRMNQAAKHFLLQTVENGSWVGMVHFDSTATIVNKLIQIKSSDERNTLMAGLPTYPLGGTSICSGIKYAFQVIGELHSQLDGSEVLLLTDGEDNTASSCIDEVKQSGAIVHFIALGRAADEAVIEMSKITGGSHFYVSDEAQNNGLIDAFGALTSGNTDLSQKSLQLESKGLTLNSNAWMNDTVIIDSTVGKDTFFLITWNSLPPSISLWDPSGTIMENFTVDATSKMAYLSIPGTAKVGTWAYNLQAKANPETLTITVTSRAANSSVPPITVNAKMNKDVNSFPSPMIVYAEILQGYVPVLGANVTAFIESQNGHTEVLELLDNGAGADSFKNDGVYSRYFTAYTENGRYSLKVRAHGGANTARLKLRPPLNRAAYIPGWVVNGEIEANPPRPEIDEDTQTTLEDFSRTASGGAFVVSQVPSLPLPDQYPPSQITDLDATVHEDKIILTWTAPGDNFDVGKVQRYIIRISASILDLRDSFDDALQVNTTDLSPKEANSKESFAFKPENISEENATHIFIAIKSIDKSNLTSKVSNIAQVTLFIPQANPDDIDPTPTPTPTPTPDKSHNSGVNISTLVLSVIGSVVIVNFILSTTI
Assay: affinity purification with mass spectrometry; immunoprecipitation sample against IgG control sample; tryptic peptides on a nanoUPLC-ESI-LTQ Orbitrap; proteins with at least two unique peptides

- binding: binds
Substance: vimentin (found in the immunoprecipitate of CLCA4) (from UniProt P08670 1-466)

These are yes or no findings as the source states them, for the method shown. Binding seen in cells or lysates may run through a third protein. A yes stands for co-enrichment or nearness to the bait. Other partners may have been found. Tags and fused reporters may be left off the sequences shown.
